Measurements reported in paper PMC5493768.
These are yes or no findings as the source states them, for the method shown. Binding seen in cells or lysates may run through a third protein. Some binding calls cover weakened binding; strength is not graded here.

By UniProt entry, the sequences of proteins in these tests, tags left out.
UniProt Q4JK59: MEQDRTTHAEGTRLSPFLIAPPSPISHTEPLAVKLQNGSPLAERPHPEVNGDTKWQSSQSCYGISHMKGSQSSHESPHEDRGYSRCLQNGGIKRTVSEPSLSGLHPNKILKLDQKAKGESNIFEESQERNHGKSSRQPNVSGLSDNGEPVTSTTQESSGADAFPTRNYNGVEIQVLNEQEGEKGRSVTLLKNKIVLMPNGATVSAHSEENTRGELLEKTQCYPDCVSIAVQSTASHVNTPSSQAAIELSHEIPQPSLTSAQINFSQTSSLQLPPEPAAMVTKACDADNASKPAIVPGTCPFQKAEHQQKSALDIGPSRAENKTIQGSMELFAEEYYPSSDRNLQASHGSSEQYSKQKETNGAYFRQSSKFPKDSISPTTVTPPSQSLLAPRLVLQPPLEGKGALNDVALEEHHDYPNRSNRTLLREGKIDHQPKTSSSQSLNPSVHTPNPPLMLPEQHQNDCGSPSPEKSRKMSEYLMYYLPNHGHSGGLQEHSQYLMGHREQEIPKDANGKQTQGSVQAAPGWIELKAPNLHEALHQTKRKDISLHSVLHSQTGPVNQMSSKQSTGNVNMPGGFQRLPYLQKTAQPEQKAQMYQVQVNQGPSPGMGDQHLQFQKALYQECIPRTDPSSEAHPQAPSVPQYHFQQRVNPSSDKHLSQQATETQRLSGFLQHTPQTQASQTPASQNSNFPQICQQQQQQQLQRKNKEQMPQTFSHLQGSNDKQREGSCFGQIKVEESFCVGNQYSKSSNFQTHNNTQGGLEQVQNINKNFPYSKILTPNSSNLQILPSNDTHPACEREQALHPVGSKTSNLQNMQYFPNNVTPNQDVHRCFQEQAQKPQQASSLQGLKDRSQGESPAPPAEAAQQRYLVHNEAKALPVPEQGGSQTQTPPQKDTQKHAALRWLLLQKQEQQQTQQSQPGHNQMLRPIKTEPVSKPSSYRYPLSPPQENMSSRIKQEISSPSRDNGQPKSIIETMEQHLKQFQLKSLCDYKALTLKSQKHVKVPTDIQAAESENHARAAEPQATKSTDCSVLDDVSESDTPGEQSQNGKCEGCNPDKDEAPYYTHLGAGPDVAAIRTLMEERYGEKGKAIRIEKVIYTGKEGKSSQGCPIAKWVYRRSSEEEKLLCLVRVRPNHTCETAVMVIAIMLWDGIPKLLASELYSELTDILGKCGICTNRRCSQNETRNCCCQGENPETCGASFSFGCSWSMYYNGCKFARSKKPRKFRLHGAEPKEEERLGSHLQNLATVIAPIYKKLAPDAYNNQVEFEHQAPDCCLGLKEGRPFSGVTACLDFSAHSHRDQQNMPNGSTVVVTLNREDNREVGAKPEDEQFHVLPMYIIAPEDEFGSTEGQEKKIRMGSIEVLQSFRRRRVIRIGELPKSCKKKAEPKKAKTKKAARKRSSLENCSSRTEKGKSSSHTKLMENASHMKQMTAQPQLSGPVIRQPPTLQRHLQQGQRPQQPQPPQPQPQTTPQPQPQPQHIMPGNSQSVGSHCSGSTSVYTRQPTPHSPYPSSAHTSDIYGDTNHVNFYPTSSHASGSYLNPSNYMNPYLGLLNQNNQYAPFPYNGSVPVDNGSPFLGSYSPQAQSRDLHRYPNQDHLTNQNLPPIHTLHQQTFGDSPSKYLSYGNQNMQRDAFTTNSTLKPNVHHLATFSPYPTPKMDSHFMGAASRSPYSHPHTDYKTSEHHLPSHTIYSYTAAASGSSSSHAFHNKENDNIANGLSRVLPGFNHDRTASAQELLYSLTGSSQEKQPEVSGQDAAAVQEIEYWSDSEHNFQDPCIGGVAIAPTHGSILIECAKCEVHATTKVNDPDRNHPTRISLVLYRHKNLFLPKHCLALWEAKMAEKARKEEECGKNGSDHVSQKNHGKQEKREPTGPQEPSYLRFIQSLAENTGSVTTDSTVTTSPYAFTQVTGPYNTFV
UniProt Q9WVH4: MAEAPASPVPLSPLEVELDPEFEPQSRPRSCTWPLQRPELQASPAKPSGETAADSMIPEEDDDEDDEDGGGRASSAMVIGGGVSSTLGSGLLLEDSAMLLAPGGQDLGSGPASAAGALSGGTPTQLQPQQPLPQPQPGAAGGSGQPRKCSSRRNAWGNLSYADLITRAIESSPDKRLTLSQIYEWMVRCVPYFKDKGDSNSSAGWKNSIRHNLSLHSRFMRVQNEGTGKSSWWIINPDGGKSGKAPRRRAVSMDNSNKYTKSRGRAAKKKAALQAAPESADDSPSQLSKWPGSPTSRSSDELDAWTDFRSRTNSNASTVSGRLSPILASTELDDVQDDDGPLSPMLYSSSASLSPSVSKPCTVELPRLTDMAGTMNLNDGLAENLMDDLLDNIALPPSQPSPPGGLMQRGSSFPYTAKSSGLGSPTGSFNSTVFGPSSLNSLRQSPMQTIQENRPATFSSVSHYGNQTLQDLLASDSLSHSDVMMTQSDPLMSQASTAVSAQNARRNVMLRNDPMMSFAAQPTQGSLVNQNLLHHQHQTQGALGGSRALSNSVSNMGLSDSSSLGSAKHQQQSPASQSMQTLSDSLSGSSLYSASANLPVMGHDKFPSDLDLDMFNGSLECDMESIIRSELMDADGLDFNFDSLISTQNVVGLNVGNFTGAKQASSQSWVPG

Target: Ten-eleven translocation 2 (Tet2), endogenous (mouse (endogenous in aNSCs)) (UniProt Q4JK59)
Assay: co-IP; endogenous proteins in WT aNSC lysate (RIPA buffer, brief sonication); IP with anti-Foxo3a and anti-Tet2 antibodies overnight, western blot

binding: binds
Substance: Forkhead box O3 (Foxo3a), endogenous (from UniProt Q9WVH4 1-672)
